Results deposited as PubChem BioAssay AID504764 (Drosophila RNAi Screening Center, 2011)
In all, the deposit lists about 22,000 reagents; shown is an unselected part of those with a known target gene and a result. In the full data, 403 (1.9%) got an active call. 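Unnormalised raw counts per well; ratio z-scores behind the hit calls and whether each hit raises or lowers signal are not deposited.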 Not stated in the record: the amount of reagent.

- Aim: 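Knock-downs that raise or lower a Notch target reporter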 (primary screen)
- Cell system: Drosophila Kc167 cells
- Reagent: long dsRNA against Drosophila genes
- Timing: about 5 days (4 days dsRNA, then 24 h after transfection)
- Conditions: transfection of constitutively active membrane-tethered Notch lacking the extracellular domain, read 24 h later
- Measurement: 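Light from a Notch-responsive E(spl)m3 luciferase reporter under active Notch, with control-promoter and no-Notch reporter wells to normalise; raw counts from paired wells a and b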
- Scale: induced reporter light, run 1, well a and induced reporter light, run 1, well b: higher = more light from the Notch target reporter with active Notch; control promoter light, run 1, well a and control promoter light, run 1, well b: higher = more light from the viral control promoter (cell number, transfection, viability); uninduced reporter light, run 1, well a: higher = more light from the Notch target reporter without active Notch
- Rule for the call: 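Hit if the duplicate-averaged log2 ratio of induced to control-promoter light gives a plate-wise z beyond ±2, or induced to uninduced beyond ±1.8; weak-control or discordant-duplicate wells dropped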
- Calls: active = modifier hit (raised or lowered Notch signal); inactive = not a hit

| Target gene | DRSC id | induced reporter light, run 1, well a | induced reporter light, run 1, well b | control promoter light, run 1, well a | control promoter light, run 1, well b | uninduced reporter light, run 1, well a | activity call |
| --- | --- | --- | --- | --- | --- | --- | --- |
| CG12643 | DRSC17849 | 1.23e5 | 1.22e5 | 1.74e5 | 1.90e5 | 7545 | inactive |
| CG17568 | DRSC02628 | 25635 | 34580 | 37245 | 29075 | 1480 | inactive |
| shf | DRSC18283 | 1.39e5 | 1.45e5 | 2.49e5 | 1.98e5 | 11210 | inactive |
| CG6867 | DRSC20013 | 53710 | 49660 | 65565 | 60250 | 8640 | inactive |
| Mco4 | DRSC20061 | 70260 | 63540 | 54180 | 57530 | 8470 | inactive |
| E2f1 | DRSC16655 | 87915 | 76840 | 1.03e5 | 89330 | 5315 | inactive |
| pcm | DRSC20361 | 1.32e5 | 1.25e5 | 97945 | 69425 | 8090 | inactive |
| CG34244 | DRSC09304 | 1.75e5 | 2.09e5 | 2.02e5 | 2.93e5 | 19282 | inactive |
| Kap3 | DRSC19426 | 2.07e5 | 1.67e5 | 2.54e5 | 2.06e5 | 13595 | inactive |
| CG2070 | DRSC06814 | 1.40e5 | 1.53e5 | 2.16e5 | 1.91e5 | 13120 | inactive |
| Idgf2 | DRSC03350 | 1.85e5 | 2.15e5 | 1.88e5 | 1.78e5 | 17525 | inactive |
| hoe1 | DRSC00265 | 2.21e5 | 1.68e5 | 2.03e5 | 2.10e5 | 20455 | inactive |
| hoe1 | DRSC00333 | 2.15e5 | 1.90e5 | 1.73e5 | 1.99e5 | 9510 | inactive |
| hoe1 | DRSC00353 | 1.25e5 | 1.11e5 | 1.51e5 | 1.19e5 | 6545 | inactive |
| CG6836 | DRSC10722 | 1.14e5 | 1.18e5 | 85520 | 93580 | 8038 | inactive |
| CG12684 | DRSC17875 | 1.44e5 | 1.39e5 | 2.49e5 | 2.49e5 | 12115 | inactive |
| CG14011 | DRSC02343 | 1.56e5 | 1.06e5 | 1.41e5 | 1.24e5 | 8900 | inactive |
| puml | DRSC06793 | 2.00e5 | 1.94e5 | 2.48e5 | 2.69e5 | 17705 | inactive |
| CG11164 | DRSC19392 | 58045 | 57605 | 45755 | 52605 | 4410 | active |
| SKIP | DRSC14713 | 1.97e5 | 1.41e5 | 1.93e5 | 2.17e5 | 13860 | inactive |
| SKIP | DRSC14714 | 1.66e5 | 1.63e5 | 2.05e5 | 1.86e5 | 10740 | inactive |
| SKIP | DRSC15864 | 1.77e5 | 1.57e5 | 1.35e5 | 1.64e5 | 11132 | inactive |
| SKIP | DRSC16195 | 88675 | 93030 | 1.20e5 | 1.16e5 | 7540 | inactive |
| SKIP | DRSC16196 | 1.76e5 | 1.59e5 | 1.63e5 | 1.42e5 | 12405 | inactive |
| CG13912 | DRSC08381 | 1.38e5 | 1.08e5 | 1.97e5 | 2.46e5 | 5985 | inactive |
| CG5909 | DRSC15914 | 1.27e5 | 1.40e5 | 2.14e5 | 1.97e5 | 11915 | inactive |
| Rbsn-5 | DRSC03094 | 87280 | 83810 | 84070 | 82255 | 5180 | inactive |
| CG10919 | DRSC14283 | 60590 | 74845 | 65925 | 49395 | 6425 | inactive |
| CG32762 | DRSC18298 | 1.50e5 | 1.55e5 | 2.29e5 | 2.59e5 | 11840 | inactive |
| CG3078 | DRSC18531 | 62065 | 71815 | 56490 | 70130 | 7630 | inactive |
| Mal-A4 | DRSC07236 | 2.07e5 | 1.79e5 | 2.40e5 | 2.51e5 | 18230 | inactive |
| LSm3 | DRSC15920 | 1.42e5 | 1.29e5 | 1.63e5 | 1.80e5 | 12460 | inactive |
| CG3032 | DRSC18266 | 1.29e5 | 1.46e5 | 2.95e5 | 2.87e5 | 10640 | inactive |
| CG17110 | DRSC15173 | 1.91e5 | 2.26e5 | 2.43e5 | 1.82e5 | 15270 | inactive |

Reformatted: results already given
Target gene,DRSC id,"induced reporter light, run 1, well a","induced reporter light, run 1, well b","control promoter light, run 1, well a","control promoter light, run 1, well b","uninduced reporter light, run 1, well a",activity call
CG6836,DRSC10722,1.14e5,1.18e5,85520,93580,8038,inactive
CG12684,DRSC17875,1.44e5,1.39e5,2.49e5,2.49e5,12115,inactive
CG14011,DRSC02343,1.56e5,1.06e5,1.41e5,1.24e5,8900,inactive
puml,DRSC06793,2.00e5,1.94e5,2.48e5,2.69e5,17705,inactive
CG11164,DRSC19392,58045,57605,45755,52605,4410,active
SKIP,DRSC14713,1.97e5,1.41e5,1.93e5,2.17e5,13860,inactive

The list goes on:
| Target gene | DRSC id | induced reporter light, run 1, well a | induced reporter light, run 1, well b | control promoter light, run 1, well a | control promoter light, run 1, well b | uninduced reporter light, run 1, well a | activity call |
| --- | --- | --- | --- | --- | --- | --- | --- |
| Cyp4e3 | DRSC03306 | 1.36e5 | 1.53e5 | 77545 | 99295 | 16690 | inactive |
| ldd | DRSC20558 | 71455 | 78645 | 90865 | 1.24e5 | 10565 | inactive |
| Lsm10 | DRSC06250 | 1.54e5 | 1.44e5 | 2.04e5 | 2.20e5 | 13090 | inactive |
| Spn28Da | DRSC02162 | 1.82e5 | 1.73e5 | 1.15e5 | 1.59e5 | 22775 | inactive |
| CG7080 | DRSC16193 | 1.40e5 | 1.54e5 | 2.07e5 | 2.24e5 | 14600 | inactive |
| CG31342 | DRSC15349 | 1.34e5 | 1.33e5 | 1.05e5 | 92010 | 11280 | inactive |
| CG31342 | DRSC16246 | 3.20e5 | 2.92e5 | 2.36e5 | 2.44e5 | 24255 | inactive |
| CG8708 | DRSC07240 | 1.80e5 | 1.36e5 | 1.82e5 | 1.49e5 | 12050 | inactive |
| Cam | DRSC07353 | 88560 | 87290 | 1.15e5 | 1.26e5 | 10055 | inactive |
| Cam | DRSC07354 | 70030 | 64225 | 1.17e5 | 87520 | 6690 | inactive |
| swm | DRSC02012 | 2.04e5 | 1.78e5 | 1.93e5 | 1.44e5 | 14205 | inactive |
| nesd | DRSC02099 | 2.58e5 | 2.33e5 | 2.44e5 | 2.74e5 | 18240 | inactive |
| Obp57c | DRSC06384 | 1.14e5 | 1.20e5 | 1.21e5 | 1.41e5 | 9040 | inactive |
| Fer1HCH | DRSC16671 | 1.24e5 | 1.74e5 | 1.93e5 | 1.74e5 | 8678 | inactive |
| CG31125 | DRSC13684 | 1.76e5 | 1.31e5 | 1.48e5 | 1.52e5 | 14010 | inactive |
| CG31077 | DRSC13805 | 1.38e5 | 1.12e5 | 1.54e5 | 1.79e5 | 8965 | active |
| CaBP1 | DRSC01984 | 1.99e5 | 2.34e5 | 1.96e5 | 1.85e5 | 17670 | inactive |
| CG43127 | DRSC09039 | 1.92e5 | 1.87e5 | 1.70e5 | 1.66e5 | 14100 | inactive |
| Tmx3 | DRSC10471 | 1.41e5 | 1.74e5 | 1.61e5 | 1.66e5 | 12805 | inactive |
| Awh | DRSC08140 | 1.18e5 | 1.54e5 | 1.92e5 | 1.87e5 | 8915 | inactive |
| CysRS-m | DRSC07129 | 1.62e5 | 1.73e5 | 1.66e5 | 1.62e5 | 15365 | inactive |
| dop | DRSC10655 | 1.11e5 | 1.11e5 | 46090 | 72100 | 8020 | inactive |
| CG10077 | DRSC09691 | 80525 | 77160 | 61745 | 22095 | 7085 | inactive |
| Taf5 | DRSC07562 | 87860 | 92505 | 98395 | 91885 | 5950 | inactive |
| CG9117 | DRSC03141 | 59725 | 56840 | 63620 | 58620 | 3235 | inactive |
| CG3246 | DRSC00584 | 1.52e5 | 1.10e5 | 1.31e5 | 1.13e5 | 9775 | inactive |
| CG32436 | DRSC11683 | 1.13e5 | 1.03e5 | 1.47e5 | 1.23e5 | 7410 | inactive |
| CG32436 | DRSC11796 | 1.09e5 | 1.09e5 | 1.29e5 | 1.01e5 | 6990 | inactive |
| emb | DRSC03528 | 74865 | 61070 | 54500 | 51970 | 8388 | active |
| Muc68Ca | DRSC10312 | 1.70e5 | 1.49e5 | 2.07e5 | 1.78e5 | 12710 | inactive |
| Muc68Ca | DRSC10313 | 1.70e5 | 1.49e5 | 2.55e5 | 1.88e5 | 10465 | inactive |
